Experimental findings from patent publication US20110271408A1 are described below.

Chains of the proteins cited; added tags and fusions are not shown. Lines headed by an entry give the natural chain unless they say otherwise; changes in a name come on top.
UniProt Q9CAJ0: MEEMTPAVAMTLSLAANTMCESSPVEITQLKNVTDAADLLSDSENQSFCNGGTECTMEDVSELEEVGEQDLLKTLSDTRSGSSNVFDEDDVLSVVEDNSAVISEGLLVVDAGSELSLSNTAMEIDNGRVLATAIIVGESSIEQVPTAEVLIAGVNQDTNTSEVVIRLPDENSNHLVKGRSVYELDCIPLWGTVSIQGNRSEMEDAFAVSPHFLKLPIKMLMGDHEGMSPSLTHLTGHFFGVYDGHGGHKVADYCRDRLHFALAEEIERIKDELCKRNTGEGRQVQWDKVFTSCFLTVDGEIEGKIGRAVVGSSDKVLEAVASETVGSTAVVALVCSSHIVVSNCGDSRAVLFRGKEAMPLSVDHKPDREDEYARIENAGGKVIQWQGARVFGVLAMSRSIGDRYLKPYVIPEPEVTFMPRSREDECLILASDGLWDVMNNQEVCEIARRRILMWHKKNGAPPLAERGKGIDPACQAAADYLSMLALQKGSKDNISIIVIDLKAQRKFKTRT
UniProt O49686: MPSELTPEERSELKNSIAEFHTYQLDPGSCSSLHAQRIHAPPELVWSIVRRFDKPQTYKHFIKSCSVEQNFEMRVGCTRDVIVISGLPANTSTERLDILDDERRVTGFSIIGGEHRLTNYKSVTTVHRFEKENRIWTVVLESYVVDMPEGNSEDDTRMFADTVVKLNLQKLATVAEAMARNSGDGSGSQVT

No constants are given. Whether binding was seen depends on the method and setting. Some entries that bind do so weakly or less than the wild type.

The first assay addresses HAB1-GAL4 AD (Gal4 activation domain (AD)-PP2C fusion protein encoded by pAD-HAB1) (UniProt Q9CAJ0). Put plainly: yeast two-hybrid growth on media lacking uracil (MAV99 pAD-HAB1), 20 µM fenhexamid.
Regarding “PYR1 mutant 27B-4 (S47P, V49I, K59R, Y120H, M158I, A177T), GAL4 BD fusion (from UniProt O49686 1-191) (receptor)”, the binding entry is “binds”. Take “PYR1 mutant 27B-2 (P42S, L44F, K59R, Y120H, V138M, M158I), GAL4 BD fusion (from UniProt O49686 1-191) (receptor)”: the binding entry is “binds”.

For the substance “PYR1 mutant 27B-7 (K59R, V81M, Y120C, M158I, V163I), GAL4 BD fusion (from UniProt O49686 1-191) (receptor)”, the binding entry is listed as “binds”. On the same count and under the same terms, then “PYR1 mutant 27B-3 (P42S, K59R, Y120H, V123I, V139I, M158I), GAL4 BD fusion (from UniProt O49686 1-191) (receptor)”, with “binds”. The same measure, in the same setting: then “PYR1 mutant 27B-1 (P42S, K59R, D97N, Y120H, V163I, A172T), GAL4 BD fusion (from UniProt O49686 1-191) (receptor)”, with “binds”.

For a further assay the target is unchanged. Put plainly: yeast two-hybrid growth on media lacking uracil (MAV99 pAD-HAB1), 1.5 µM fenhexamid.
Turning to “PYR1 mutant 27C-19 (L33F, P42S, K59R, Y120H, V123I, M158I), GAL4 BD fusion (from UniProt O49686 1-191) (receptor)”, the binding result is given as “binds”. On the same count and under the same terms, next, “PYR1 mutant 27C-16 (K59R, V81M, Y120H, M158I, V163I), GAL4 BD fusion (from UniProt O49686 1-191) (receptor)”: “binds”; “PYR1 mutant 27C-3 (S29N, K59R, D97N, Y120H, V163I, A72T as printed), GAL4 BD fusion (from UniProt O49686 1-191) (receptor)”: “binds”; “PYR1 mutant 27C-18 (E12K, K59R, V75I, D97N, Y120H, V163I, A172T), GAL4 BD fusion (from UniProt O49686 1-191) (receptor)”: “binds”. The same measure, in the same setting: then “PYR1 mutant 27C-1 (P27L, P42S, K59R, D97N, Y120H, M158I, T173A), GAL4 BD fusion (from UniProt O49686 1-191) (receptor)”, with “binds”; and “PYR1 mutant 27C-5 (P42S, K59R, Y120H, V123I, V139I, M158I, V163I), GAL4 BD fusion (from UniProt O49686 1-191) (receptor)”, with “binds”. As for “PYR1 mutant 27C-2 (P42S, K59R, R74C, Y120H, M158I), GAL4 BD fusion (from UniProt O49686 1-191) (receptor)”, the binding result is recorded as “binds”. The same measure, in the same setting: next, “PYR1 mutant 27C-20 (P42S, K59R, Y120H, M158I, V163I, V174I), GAL4 BD fusion (from UniProt O49686 1-191) (receptor)”: “binds”.

Take “PYR1 mutant 27C-21 (R10Q, P42S, K59R, D97N, Y120H, V163I, A172T), GAL4 BD fusion (from UniProt O49686 1-191) (receptor)”: the binding result is given as “binds”.

For another assay the target is unchanged. Put plainly: yeast two-hybrid X-gal staining (Y190 pAD-HAB1) on a range of fenhexamid concentrations.
As to “PYR1 K59R, Y120H, M158I triple mutant, GAL4 BD fusion (pBD-PYR1) (from UniProt O49686 1-191) (receptor)”, the binding result is given as “binds”.
